Assay results published in article PMC8716928.
No constants are given. Whether binding was seen depends on the method and setting. Binding seen in cells or lysates may run through a third protein. Binding calls can cover weak binding; strength is not graded here. Where a sequence is shown, tags or fusion partners need not be part of it.

The chains behind the UniProt entries cited, without tags or fusion partners. Where a name states a change or a piece, a line headed by the entry shows the natural chain unless it says otherwise.
UniProt P24374: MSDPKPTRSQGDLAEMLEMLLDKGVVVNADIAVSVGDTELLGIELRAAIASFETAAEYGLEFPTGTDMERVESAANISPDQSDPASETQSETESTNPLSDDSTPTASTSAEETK
UniProt P24377: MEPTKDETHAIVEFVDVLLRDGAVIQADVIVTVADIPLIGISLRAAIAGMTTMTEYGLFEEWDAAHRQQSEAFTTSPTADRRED

Experiments:
[1] = target: T1, GvpL with NGFP fused at the N-terminus (Halobacterium salinarum) (UniProt Q9HI27); assay: split reporter; split-GFP (salt-stable mGFP2, split between aa 157 and 158) in Hfx. volcanii transformants, combination JC/NL; cultures 24 h at 37°C then 24 h at 30°C; relative fluorescence (rf) of cells against untransformed WR340
T1 sequence: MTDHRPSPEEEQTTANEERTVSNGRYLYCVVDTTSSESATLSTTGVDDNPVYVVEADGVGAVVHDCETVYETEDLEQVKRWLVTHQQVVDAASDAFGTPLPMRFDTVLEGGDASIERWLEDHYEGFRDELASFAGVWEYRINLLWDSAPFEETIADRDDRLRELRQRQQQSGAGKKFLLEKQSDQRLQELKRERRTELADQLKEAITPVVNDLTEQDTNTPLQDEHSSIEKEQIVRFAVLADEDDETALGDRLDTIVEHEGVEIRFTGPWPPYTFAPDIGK

[2] = target: T1, GvpL with NGFP fused at the N-terminus (Halobacterium salinarum); assay: split reporter; split-GFP (mGFP2) in Hfx. volcanii transformants, combination NL/MC with the entire GvpM; relative fluorescence (rf) of cells against untransformed WR340

binding [1] | binding [2] | Substance
binds |  | GvpJ variant M19E with CGFP fused at the C-terminus (from UniProt P24374)
 | binds | GvpM variant D21A (split-GFP fusion; parent not named) (from UniProt P24377)
 | binds | GvpM variant E13A (split-GFP fusion; parent not named) (from UniProt P24377)
 | binds | GvpM variant G22D (split-GFP fusion; parent not named) (from UniProt P24377)
 | binds | GvpM variant R20A (split-GFP fusion; parent not named) (from UniProt P24377)
